Our source for the binding signal values is paper PMC7819943, “Rice protein-binding microarrays: a tool to detect cis-acting elements near promoter regions in rice”.

Amino acid sequences for entries named in this document (tags omitted).
UniProt Q0JBA9, entry or part of it: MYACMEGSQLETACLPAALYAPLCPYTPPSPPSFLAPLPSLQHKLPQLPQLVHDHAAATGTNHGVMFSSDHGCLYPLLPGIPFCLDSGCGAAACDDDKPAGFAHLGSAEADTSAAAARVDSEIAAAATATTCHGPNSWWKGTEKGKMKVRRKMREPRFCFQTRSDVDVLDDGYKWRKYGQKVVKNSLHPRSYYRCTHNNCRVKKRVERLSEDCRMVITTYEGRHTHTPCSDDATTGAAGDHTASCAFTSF

The other results are listed elsewhere or left out.

The target in the assay is OsWRKY34 (Oryza sativa, UniProt Q0JBA9 1-250). Briefly: protein-binding microarray (RPBM); PBS, 2% BSA, 51.3 ng/ul salmon testes DNA, 50 uM zinc acetate, 200 nM TF, 25 C, 1 h; high values mean tight binding. Particulars: protein: recombinant; tags: N-terminal polyhistidine and DsRed monomer fusion (pET32a); label: CyDye5-dUTP incorporated in the synthesized complementary strand; 3' TTTTT single-stranded linker to array surface; dsDNA, one strand shown. The essentials:
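Using Ni–NTA, transcription factors fused N-terminally to polyhistidine and DsRed were purified after expression in E. coli BL21-CodonPlus. These were incubated at 200 nM with a blocked, double-stranded custom Agilent array for 1 h at 25 °C in a buffer containing 50 µM zinc acetate, and the array was washed. The binding signal is per-feature fluorescence intensity (arbitrary units) on an Axon 4000B scanner.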
“ACACGACTCTACTCGATTCGACCGTTCCGCCGCTTCCGCACGGAGTCACCTAGTGCAG”: the binding signal was 11300 fluorescence intensity (a.u.).

Turning to “GCCGTTGTTTTCGCAGCAGCGGCGGCGGCGGCGGTGGCGGCGGAGTCACCTAGTGCAG”, the binding signal was 8750 fluorescence intensity (a.u.).

“TGTCCCCTACCCCAGTTTAGCCGTCCTGCTGGCCTCACATCGGAGTCACCTAGTGCAG”: the binding signal was 9400 fluorescence intensity (a.u.).

Turning to “GTTTAGATTCAAAAATTTTTCTTCAAACTTTTACTTTTTCCGGAGTCACCTAGTGCAG”, the binding signal was 9270 fluorescence intensity (a.u.).

Turning to “AAAGTGTTTGGTACTTTGGTTTGGGGAGCTTGTTTGCCGACGGAGTCACCTAGTGCAG”, the binding signal was 8460 fluorescence intensity (a.u.).

Take “CGCAGCCACCGCCGCCGCCGCCTCGTCGCCAGGCACCGCGCGGAGTCACCTAGTGCAG”: the binding signal is 9060 fluorescence intensity (a.u.).

As for “CTCGCATGCTGCGCGCCTTCGTCGACGCTCACAACCGCGGCGGAGTCACCTAGTGCAG”, the binding signal is 8310 fluorescence intensity (a.u.).

As for “GCCACGAAACTGCCGCTTTCCTCGTCGCCGGTGCCGGCGCCGGAGTCACCTAGTGCAG”, the binding signal is 9760 fluorescence intensity (a.u.).

Regarding “AATCCCCGCACGCGTCTTTACTTCGCCTTCGTCTTTCCTCCGGAGTCACCTAGTGCAG”, the binding signal is 9340 fluorescence intensity (a.u.).

For “TCGACTAAATTACCCGCGCTATTACTGTACCGTGCGTCGACGGAGTCACCTAGTGCAG”, the binding signal is 9640 fluorescence intensity (a.u.).

In the case of “GACACCGCCCCGTCGAGCGCCCGGTCCTTCACCCACTTCACGGAGTCACCTAGTGCAG”, the binding signal was 9950 fluorescence intensity (a.u.).

For the sequence “GACTCGACTCTTATCTGTGTGGGCCGTCGTCGTCTTCAACCGGAGTCACCTAGTGCAG”, the binding signal is 9790 fluorescence intensity (a.u.).

Take “TGCACTAGTATGTATGACGTTGACTGTTTTTTTAAGGACGCGGAGTCACCTAGTGCAG”: the binding signal was 10200 fluorescence intensity (a.u.).

“TATAACTTTATCTAGTTTGTTTAGACCTCATTGCTATTTCCGGAGTCACCTAGTGCAG”: the binding signal was 9950 fluorescence intensity (a.u.).

Consider “TGGTAGCACGTATTTTTCTCTCCCTGTTTTTTTGCTGATTCGGAGTCACCTAGTGCAG”, for which the binding signal is 9630 fluorescence intensity (a.u.).

As to “GATGTAACTTATTTTATTTAATTTTCTGCTTAAATGTTTTCGGAGTCACCTAGTGCAG”, the binding signal is 9410 fluorescence intensity (a.u.).

For the sequence “CGCCGCCACCGTCCTCTCCGCTCCGCTCCGGCCCAACGAGCGGAGTCACCTAGTGCAG”, the binding signal is 8390 fluorescence intensity (a.u.).

For “AAGTCTTCTCAAATTTGCAAACTCTACTGTTTTGTTTGATCGGAGTCACCTAGTGCAG”, the binding signal is 10200 fluorescence intensity (a.u.).

Turning to “CCCCAACTACCCCAAATTTCCAATTTTCCATCACATCACACGGAGTCACCTAGTGCAG”, the binding signal was 11000 fluorescence intensity (a.u.).

As for “TTCATTCGTCCCATGATATTTTTTTTCTAGCATTTAAAAGCGGAGTCACCTAGTGCAG”, the binding signal was 8220 fluorescence intensity (a.u.).

On to “ACCCTTCACTACTCATTTCTACCTATTTTCTTAATAACCGCGGAGTCACCTAGTGCAG”, for which the binding signal is 8900 fluorescence intensity (a.u.).

As for “CGACTCGACGTCGTCGTCATTCTTCATGGCTGGGTGGGTTCGGAGTCACCTAGTGCAG”, the binding signal was 9940 fluorescence intensity (a.u.).

On to “TCTCTCATTTGGTACATAAACTTTTCTTGTTGTCGCTCTTCGGAGTCACCTAGTGCAG”, for which the binding signal is 8930 fluorescence intensity (a.u.).

On to “ACCAGTTTTTCTGCTAGGGATCTTCGTCGGCGCCCTTCTTCGGAGTCACCTAGTGCAG”, for which the binding signal was 9820 fluorescence intensity (a.u.).

Consider “AATACTCATCATTAGGAGCACATGTCTAAGTTTTTTTTAACGGAGTCACCTAGTGCAG”, for which the binding signal is 8350 fluorescence intensity (a.u.).

Regarding “TCATGATTCTGGATATATCTTTTCCCAATTTATCATGCCACGGAGTCACCTAGTGCAG”, the binding signal was 8370 fluorescence intensity (a.u.).

As to “TGGTTGTATAATTCTACCCGCTGGCGGTGTCGCTTGTGAACGGAGTCACCTAGTGCAG”, the binding signal is 8700 fluorescence intensity (a.u.).

Turning to “CTGCTTCCGCCGCATCCACATCCTTCGCCGCCGCCGCCGCCGGAGTCACCTAGTGCAG”, the binding signal is 10600 fluorescence intensity (a.u.).

For the sequence “GGATTTCTATATGGACTCTAGTCTCCTCTTCTAATATTCCCGGAGTCACCTAGTGCAG”, the binding signal was 9530 fluorescence intensity (a.u.).

Turning to “TCTCAGTTGCAAAAACAGATACAGCCTATATACCTTTTTTCGGAGTCACCTAGTGCAG”, the binding signal was 8310 fluorescence intensity (a.u.).

With “AGGTGTACATGATTGTTTGCTTCCTTGCTGCAGCTCGGCGCGGAGTCACCTAGTGCAG”, the binding signal was 9030 fluorescence intensity (a.u.).

For the sequence “ACCCACTCTTTTTTTCAAGTTCCAGCATCCGTTTGTGAATCGGAGTCACCTAGTGCAG”, the binding signal is 8850 fluorescence intensity (a.u.).

Regarding “TGTTTATTTTTTTCGTTAAATTTGATTGTTTCCATTTGCACGGAGTCACCTAGTGCAG”, the binding signal was 9770 fluorescence intensity (a.u.).

In the case of “ATTTATCTTCTCTGTTTAGGGCTCCTAAAAATTCGAACTACGGAGTCACCTAGTGCAG”, the binding signal was 9150 fluorescence intensity (a.u.).

“GTTGTATTTATTGGTACCCTTGAAATTTTGTGGTATTCTTCGGAGTCACCTAGTGCAG”: the binding signal was 8390 fluorescence intensity (a.u.).

Regarding “CCGAGCAACCGGTCTTTTCGCCACCTCGGTACATGTTCTACGGAGTCACCTAGTGCAG”, the binding signal is 13400 fluorescence intensity (a.u.).

On to “TTCTCCTCCTATGCGGACACGCCGCCACCCACGAGGCCACCGGAGTCACCTAGTGCAG”, for which the binding signal was 8700 fluorescence intensity (a.u.).

For the sequence “CGCGTTCATCTTCTGCTTGTTATAATCCTCCATTCTTTTTCGGAGTCACCTAGTGCAG”, the binding signal is 12400 fluorescence intensity (a.u.).

For the sequence “CCACGCGTCCGCGTCCCGCACGCCAATCACACGCACGGAGCGGAGTCACCTAGTGCAG”, the binding signal is 8170 fluorescence intensity (a.u.).

For “CCAGTTCATCCACACGTGTGTAGTCCGTTTGTTGGTTGGTCGGAGTCACCTAGTGCAG”, the binding signal was 10500 fluorescence intensity (a.u.).

Take “AATTTTGTTACTTAATCTATAGCTTTGTGACCATATATTTCGGAGTCACCTAGTGCAG”: the binding signal is 8630 fluorescence intensity (a.u.).

On to “CAGGGGCTATTTCTGCAATTTTTTTGGTCGATAGATTATTCGGAGTCACCTAGTGCAG”, for which the binding signal is 9070 fluorescence intensity (a.u.).

As for “ACTCTATTTAGATATTTTCCCACGCATCCGTCTCCTCCTCCGGAGTCACCTAGTGCAG”, the binding signal is 9420 fluorescence intensity (a.u.).

“CCGTTTTGTATAGTTAAGGGCCCCGCATATCTGGTTTTGTCGGAGTCACCTAGTGCAG”: the binding signal is 8210 fluorescence intensity (a.u.).

For the sequence “TCATCCGGACTAAACGCGTCCATCCGCGCGCTTCTCTTCCCGGAGTCACCTAGTGCAG”, the binding signal was 8590 fluorescence intensity (a.u.).

“CTCCTCTAACGTACCATAGAGGGACATACGTTTCTGATGTCGGAGTCACCTAGTGCAG”: the binding signal is 8720 fluorescence intensity (a.u.).

Regarding “CAGAAATTCCATATGCCATATGTTAGCTTATGTCCAATTGCGGAGTCACCTAGTGCAG”, the binding signal was 8550 fluorescence intensity (a.u.).

For “TTCAAACTGCTAAACGGTATGTTATTTTTTAAAAGTTTCTCGGAGTCACCTAGTGCAG”, the binding signal is 9550 fluorescence intensity (a.u.).

With “GCATCCCTTTCCTCGACACTCTGCACTCCAGGCTTCAATTCGGAGTCACCTAGTGCAG”, the binding signal is 11100 fluorescence intensity (a.u.).

As for “ATTAATCTACGTTCGATTTAATATGTGTCCGTATACTTTACGGAGTCACCTAGTGCAG”, the binding signal was 8350 fluorescence intensity (a.u.).

Turning to “GATTGGGTTGGGTAGAGCGGCCACACTATTGCGGAATTTCCGGAGTCACCTAGTGCAG”, the binding signal was 9200 fluorescence intensity (a.u.).

With “ATCCATTCTCCGTAGTATTCTCGTATTAGGTTTGTTTTTTCGGAGTCACCTAGTGCAG”, the binding signal was 13700 fluorescence intensity (a.u.).

As for “CGGCTCCATTTTGTCGTTGCGCGCGACGCGCCTCACTTCCCGGAGTCACCTAGTGCAG”, the binding signal is 9210 fluorescence intensity (a.u.).

Consider “AACGATGACTGCAGGATATTATGTTCCTATTGCAAAGTCTCGGAGTCACCTAGTGCAG”, for which the binding signal was 9940 fluorescence intensity (a.u.).
